The values that follow are results of earlier work, collected in patent publication US20140171436A1, “TREATMENT OF ANTIFOLATE NEUROTOXICITY” (Syntrix Biosystems, Inc., priority 2003, published 2014).

The target in this data set is NMDA receptor. Particulars: read-out: Ki NMDAR; cited from earlier work.

In the case of `O=C(CCCN1CCC(O)(c2ccc(Cl)cc2)CC1)c1ccc(F)cc1` [Haloperidol], the Ki was 48 µM.
